PubChem BioAssay AID1259415 (National Center for Advancing Translational Sciences (NCATS), 2018)
“And” between values parts separate entries of the source, which are not always exact repeats. Identical values can stand only once. Hit rate of the full screen: of about 410,000 compounds, about 18,000 (4.4%) were called active. The shares of active, inactive and inconclusive entries below differ from those in the screen. Rule as the data show it: active = activity change below about -60%; inconclusive = no clear call, values can overlap the other calls; inactive = above about -39%.
% is scaled to controls: 0 for no effect and ±100 for the full control effect.

Experiment: qHTS Assay for inhibitors of the human cytomegalovirus (HCMV)
Conditions: HFF cells, HCMV-luciferase reporter, 72 h; at 57.5 µM; hits give low values
Outline: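 After 16 h attachment at 37C, HFF cells received test compound and HCMV-luciferase (1 PFU/cell); reporter luminescence read 72 h later, data normalized against buffer-only and known inhibitor Salinomycin.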
In the case of `Cc1ccccc1NS(=O)(=O)c1ccc(OCC(=O)N2CCN(C)CC2)cc1`, the activity change, negative = inhibition is reported as inconclusive: -43.9%. For `O=C(CCNC(=O)c1ccc([N+](=O)[O-])cc1)Nc1ccccc1N1CCOCC1`, the activity change, negative = inhibition was inactive: -0.0167%. For `Cc1ccccc1N1CCN(C2CCCN(C(=O)CCC3(C)CC3)C2)CC1` (stereo not given), the activity change, negative = inhibition was inconclusive: -48.3%. With `Cc1ccc(/C=N/NC(=O)c2cc(-c3ccncc3)nc3ccccc23)o1` the activity change, negative = inhibition was active: -64.5%. For `Cc1cc(C)c[n+](-c2nc3ccccc3nc2C(=C=[N-])C#N)c1`, the activity change, negative = inhibition was inactive: -19.9% and inactive: -23.9%. With `CCOc1ccc(N(CC(=O)Nc2ccc(Br)cc2)S(C)(=O)=O)cc1` the activity change, negative = inhibition was inactive: 88.7%. For `COc1cc(/C=N/NC(=O)CN2CCCCC2)ccc1OCc1ccccc1`, the activity change, negative = inhibition was inconclusive: -43.7%. In the case of `N#Cc1cccc(NC(=O)C2CCN(c3nc(-c4ccc(Cl)cc4)no3)CC2)c1`, the activity change, negative = inhibition is reported as inconclusive: -47.3%. For `CCCC(C)NC(=O)c1cc(S(=O)(=O)N2CCCCCC2)ccc1OC` (stereo not given), the activity change, negative = inhibition was inactive: -6.56%. In the case of `Cc1ccc(S(=O)(=O)N(C(=O)c2ccco2)c2cc3sc(=O)oc3c3ccccc23)cc1`, the activity change, negative = inhibition is reported as inconclusive: -42.5%. For `COc1cc(NC(=O)CN2C(=O)NC(c3ccccc3)(c3ccccc3)C2=O)cc(OC)c1`, the activity change, negative = inhibition was inconclusive: -49.3%. For `COc1ccccc1C(=O)NCC(=O)N/N=C/c1cc(Br)ccc1OCc1ccccc1`, the activity change, negative = inhibition was inconclusive: -54.3%. For `CCc1cc2cc(OC)ccc2nc1SCC(=O)NNC(=O)c1ccco1`, the activity change, negative = inhibition was inactive: -3.39%. With `Cn1c2c(c(=O)n(C)c1=O)C(C(F)(F)F)(C(F)(F)F)N=C(CCC1CCCCC1)N2` the activity change, negative = inhibition was active: -103%. With `CC(Cc1ccsc1)NC(=O)CCc1nnc(CCc2ccccc2)o1` (stereo not given) the activity change, negative = inhibition was inconclusive: -53.2%. With `Cn1c(=O)c2cc(NC(=O)Nc3cccnc3)ccc2n1Cc1ccc(Cl)cc1` the activity change, negative = inhibition was active: -96.6%. With `C/C(=N\Nc1cccc2ccccc12)c1c(O)n(Cc2ccccc2)c(=O)[nH]c1=O` the activity change, negative = inhibition was inactive: 20%. In the case of `COc1ccc(NS(=O)(=O)c2ccc(-n3cccn3)cc2)cc1OC`, the activity change, negative = inhibition is reported as inconclusive: -56.3%. With `CC(C)NC(=O)NC(=O)CSc1nnc(C(F)(F)F)n1C` the activity change, negative = inhibition was inconclusive: -43.4%. With `COc1cccc2sc(Nc3nc4ccc(NC(C)=O)cc4s3)nc12` the activity change, negative = inhibition was active: -82.5%. In the case of `CCOC(=O)[C@@H](C)N(Cc1ccc(OC)cc1)S(=O)(=O)N(Cc1ccccc1)[C@H](C(=O)OC)C(C)C`, the activity change, negative = inhibition is reported as active: -79.5%. For `CCCn1c2c(c(O)c(C(=O)Nc3ncccc3C)c1=O)CCCC2`, the activity change, negative = inhibition was inconclusive: -59.9%. In the case of `COc1cccc(C(=O)NC2CC3CCCC(C2)N3CC(=O)Nc2ccc(N(C)C)cc2)c1` (stereo not given), the activity change, negative = inhibition is reported as inconclusive: -43.9%. For `C/C(CCC(C)C)=N\Nc1ccc(S(N)(=O)=O)cc1[N+](=O)[O-]`, the activity change, negative = inhibition was inconclusive: -48.9%. With `Cc1ccc(CNC(=O)C2CCN(C(=O)Nc3ccc(C)cc3)CC2)cc1` the activity change, negative = inhibition was inactive: -16.4%. For `COc1ccc(CCNC(=O)CN2C(=O)C(=O)N(C3CCCC3)C2=O)cc1OC`, the activity change, negative = inhibition was inconclusive: -41.1%. With `O=[N+]([O-])c1c(NCCCO)cc(N2CCN(Cc3ccc4c(c3)OCO4)CC2)c2nonc12` the activity change, negative = inhibition was active: -77.7%. With `Cc1cc(C)cc(C(=O)NC(=S)Nc2ccc(Cc3ccncc3)cc2)c1` the activity change, negative = inhibition was active: -74.1%. In the case of `Cc1ccc(NC(=O)C2CCCN(S(=O)(=O)c3ccc4c(c3)oc(=O)n4C)C2)nc1` (stereo not given), the activity change, negative = inhibition is reported as inconclusive: -59.7%. In the case of `CN1C2CCC1/C(=C/c1cccn1C)C(=O)/C2=C\c1cccn1C`, the activity change, negative = inhibition is reported as inconclusive: -56.4%. In the case of `O=C(Nc1cc2c3c(c1)CC(=O)N3CCC2)C1CCCCC1`, the activity change, negative = inhibition is reported as inactive: 16.7%. With `O=C(Nc1ccc2c(c1)OCCO2)C(Nc1ccccc1)c1ccccc1F` (stereo not given) the activity change, negative = inhibition was inconclusive: -51.8%. For `Cc1ccc(-n2ncc(C(=O)NC3CCN(Cc4ccccc4)CC3)c2C2CCN(C(=O)OC(C)(C)C)CC2)cc1C`, the activity change, negative = inhibition was inconclusive: 0%. In the case of `COC(=O)c1ccccc1NC(=O)c1ccnn1C`, the activity change, negative = inhibition is reported as inconclusive: -50.8%. In the case of `CC1(C)Cc2c(sc3nc(-c4cccs4)n(N)c(=O)c23)CO1`, the activity change, negative = inhibition is reported as inconclusive: -48.4%. In the case of `Nc1nnc(P(c2ccccc2)c2ccccc2)s1`, the activity change, negative = inhibition is reported as active: -64.5%. With `O=C(NC(=S)NCc1ccco1)c1ccc(Br)cc1` the activity change, negative = inhibition was inactive: -36.6%. In the case of `O=C(/C=C/c1ccc([N+](=O)[O-])o1)NNC(=O)c1ccc(F)cc1`, the activity change, negative = inhibition is reported as active: -99.5%. In the case of `OC(COc1ccc2c(c1)OCO2)CN1CCN(c2ccc(F)cc2)CC1` (stereo not given), the activity change, negative = inhibition is reported as inconclusive: -41%. For `Cn1c(N)c(S(=O)(=O)c2ccc(Br)cc2)c2nc3ccccc3nc21`, the activity change, negative = inhibition was inactive: 37.5%. With `Cc1cnc(C(=O)NNC(=O)c2ccc(Br)cc2)cn1` the activity change, negative = inhibition was inconclusive: -42.9%. In the case of `CCCCN(C)C(=O)c1ccc(Nc2nc(C(N)Cc3ccc(C(F)(F)F)cc3)cs2)nc1` (stereo not given), the activity change, negative = inhibition is reported as active: -75.8%. With `Cc1nn(-c2cc(N(S(C)(=O)=O)S(C)(=O)=O)c(Cl)cc2Cl)c(=O)n1C` the activity change, negative = inhibition was inactive: 23.1%. With `Cc1cc(NC(=O)CN2C(=O)NC3(CCCCC3)C2=O)no1` the activity change, negative = inhibition was inconclusive: -48.5%. For `Clc1ccc(-n2ncc3c(NCCN4CCOCC4)ncnc32)cc1`, the activity change, negative = inhibition was inconclusive: -54.1%. In the case of `O=C(Nc1cccc(Cl)c1)c1cc(N=Nc2ccc([N+](=O)[O-])cc2Cl)ccc1O`, the activity change, negative = inhibition is reported as inconclusive: -54.2%. For `Fc1ccc(COc2ccc(Br)cc2CNCc2ccncc2)cc1`, the activity change, negative = inhibition was inconclusive: -53.8%. For `CCN1CCN(C(=O)C(C)N(c2ccc(C)cc2)S(C)(=O)=O)CC1` (stereo not given), the activity change, negative = inhibition was inconclusive: -45.7%. In the case of `O=C(NCCc1ccccc1)c1ccc2c(c1)OCCCO2`, the activity change, negative = inhibition is reported as active: -92.8%. In the case of `COC(=O)c1ccc(/C=C2/SC(=S)N(CCCC(=O)Nc3ccc(O)cc3)C2=O)cc1`, the activity change, negative = inhibition is reported as inactive: -31.6%. With `S=c1[nH]nc(-c2ccc3ccccc3n2)n1-c1ccccc1Cl` the activity change, negative = inhibition was inconclusive: -51.7%. With `CCOc1ccccc1CNC(=O)C1CCN(c2nc3ccccc3nc2C(F)(F)F)CC1` the activity change, negative = inhibition was inactive: 4.38%. In the case of `O=C(O)CSc1ncnc2sc3c(c12)CCCC3`, the activity change, negative = inhibition is reported as inactive: -30.6%. In the case of `Cc1cc(C)cc(N(C(=O)CNC(=O)c2ccco2)C(C(=O)NC2CCCC2)c2ccncc2)c1` (stereo not given), the activity change, negative = inhibition is reported as active: -67.4%. In the case of `COc1ccccc1NC(=O)N(Cc1cccs1)Cc1cc2cc3c(cc2[nH]c1=O)OCO3`, the activity change, negative = inhibition is reported as inactive: 12.4%. In the case of `CN(C)CCNC(=O)c1csc(Nc2cccc3ccccc23)n1`, the activity change, negative = inhibition is reported as inconclusive: -59.1%. For `Cc1cc(=O)oc2cc(OCC(=O)N3CCN(C(=O)C4COc5ccccc5O4)CC3)ccc12` (stereo not given), the activity change, negative = inhibition was inconclusive: -58.1%. With `CCN(CC)c1cccc(OCC(=O)N2c3ccccc3CC2C)c1` (stereo not given) the activity change, negative = inhibition was active: -76.9%. For `CN1CCN(S(=O)(=O)c2ccc(N3CCN(C(=O)c4ccccc4)CC3)nc2)CC1`, the activity change, negative = inhibition was inconclusive: -40.7%. With `CCOC(=O)N1CCC(NC(=O)CSCc2nc(-c3cccc(OC)c3)oc2C)CC1` the activity change, negative = inhibition was active: -93.1%. With `CCOC(=O)N1CCN(CC(O)c2c[nH]c3ccc(OC)cc23)CC1` (stereo not given) the activity change, negative = inhibition was inconclusive: -40.3%. With `CCCNC(=O)N1CCCN(S(=O)(=O)c2ccc3c(ccn3CC)c2)CC1` the activity change, negative = inhibition was inactive: -6.43%. With `COc1ccc(S(=O)(=O)N2c3ccccc3OCC2c2ccccc2)cc1` (stereo not given) the activity change, negative = inhibition was inconclusive: -57%. For `Cc1c(Cl)cccc1-c1ccc(/C=C(\C#N)c2nc3ccccc3[nH]2)o1`, the activity change, negative = inhibition was inconclusive: -45.9%. With `Oc1ccc(CCNc2c3ccccc3nc3ccccc23)cc1O` the activity change, negative = inhibition was active: -100%. With `Cc1c(C(=O)O)sc2nc3n(c(=O)c12)CCC3` the activity change, negative = inhibition was inconclusive: -52.6%. In the case of `Cc1ccc(/C=N/Nc2ccnc3cc(Cl)ccc23)c(C)c1`, the activity change, negative = inhibition is reported as active: -76%. For `NC(=O)c1nsc(C(=O)N(c2ccc3c(c2)OCO3)C(C(=O)NCC2CCCO2)c2ccc(F)cc2)c1N` (stereo not given), the activity change, negative = inhibition was inconclusive: -56%. In the case of `O=C1/C(=C\c2ccc(Cl)c(Cl)c2)N2CCC1CC2`, the activity change, negative = inhibition is reported as inconclusive: -48.3%. For `OCCCC1CCCN(Cc2cn[nH]c2-c2ccc(F)cc2F)C1` (stereo not given), the activity change, negative = inhibition was inconclusive: -50%. In the case of `COc1ccc(C2CC(c3ccccc3)=NN2C(=O)CSc2nnnn2-c2cccc(C)c2)cc1` (stereo not given), the activity change, negative = inhibition is reported as inconclusive: -40.7%. In the case of `O=C(CN1C(=O)NC2(CCCC2)C1=O)OCc1ccc(Cl)c(Cl)c1`, the activity change, negative = inhibition is reported as inactive: -27.3%. For `COc1ccc(N2CCN(C(=O)c3cnn(-c4ccc(OC)cc4)c3C3CCN(C(=O)OC(C)(C)C)CC3)CC2)cc1`, the activity change, negative = inhibition was inconclusive: 0%. In the case of `OCCN(Cc1ccccc1)c1ncnc2sccc12`, the activity change, negative = inhibition is reported as inconclusive: -51.5%. In the case of `CCOC(=O)CN1CCS(=O)(=O)CC1`, the activity change, negative = inhibition is reported as inactive: -8.6%. In the case of `Nc1cc(C2CCCC2)nn1-c1ccccc1`, the activity change, negative = inhibition is reported as inactive: -37%. In the case of `CCC1CN2CCc3cc(OC)c(OC)cc3C2CC1CC1c2cc(OC)c(OC)cc2CCN1C(=O)C(Cc1c[nH]c2ccccc12)NC(=O)OC(C)(C)C` (stereo not given), the activity change, negative = inhibition is reported as inconclusive: -50.1%. In the case of `COc1ccc(OC)c(NC(=O)Cn2c(=O)cc(C)c3c(C)nn(-c4cccc(Cl)c4C)c32)c1`, the activity change, negative = inhibition is reported as inconclusive: -55.6%. With `CN1CC(=O)Nc2cc(C(=O)O)ccc21` the activity change, negative = inhibition was inconclusive: -40.6%. With `O=C(CN1C(=O)CCSc2ccccc21)Nc1ccc(C(F)(F)F)cc1` the activity change, negative = inhibition was inactive: -3.84%. For `Cc1cccc(NC(=S)NC(NC(=O)c2ccco2)C(Cl)(Cl)Cl)c1` (stereo not given), the activity change, negative = inhibition was inactive: 30.4%. With `Cc1nc(N)nc(N)c1-c1ccc([N+](=O)[O-])cc1` the activity change, negative = inhibition was inconclusive: -52.5%. For `Cc1ccc(NC(=O)COc2ccc(-c3nnco3)cc2)cc1S(=O)(=O)N1CCOCC1`, the activity change, negative = inhibition was inconclusive: -40.5%. For `Cc1ccc(-n2ncc(C(=O)Nc3c(Cl)cccc3Cl)c2C2CCNCC2)cc1`, the activity change, negative = inhibition was inconclusive: -53.7%. For `FC(F)(F)c1ccccc1NC(=S)Nc1ccccc1`, the activity change, negative = inhibition was inconclusive: -49.9%.
